Among the data in paper PMC7794386, “Mechanism of filament formation in UPA-promoted CARD8 and NLRP1 inflammasomes” (Nature Communications, 2021) are binding values, retold here.

These are yes or no findings as the source states them, for the method shown. Where a sequence is shown, tags or fusion partners need not be part of it.

Assay [1] has as its target NLRP1^CARD (D1374-S1473, G1467C), MBP tag cleaved (human) (UniProt Q9C000). Nature of the assay: negative stain EM of filament formation; purified MBP-fused protein cleaved with 3C protease for 3 h at 37 °C at different concentrations (0.1 to 30 µM), then negatively stained with 1% uranyl formate and imaged; both purified.
Assay [2] has as its target His-MBP-NLRP1^CARD (D1374-S1473, G1467C), uncleaved (human) (UniProt Q9C000). Nature of the assay: SEC; preparative SEC of amylose-purified His-MBP fusions (Superdex 200 for MBP-CARD, Superose 6 for MBP-UPA and MBP-NLRP1-CT); 25 mM Tris-HCl pH 7.5, 150 mM NaCl, 1 mM TCEP; both purified. (SEC sorts molecules by how far they enter the pores of the column.)

B1: NLRP1^CARD (D1374-S1473, G1467C), MBP tag cleaved (domain or fragment, UniProt Q9C000-1 1374-1473)
chain: DAPQLLHFVDQYREQLIARVTSVEVVLDKLHGQVLSQEQYERVLAENTRPSQMRKLFSLSQSWDRKCKDGLYQALKETHPHLIMELWEKGSKKCLLPLSS
As to B1, the binding entry in assay [1] was “no binding (tested: 30 µM)”.

B2: His-MBP-NLRP1^CARD (D1374-S1473, G1467C), uncleaved (domain or fragment, UniProt Q9C000-1 1374-1473)
chain: B1 chain
B2: the binding result in assay [2] is listed as “no binding”.
